Experimental data as given in PMC4583372.

Amino acid sequences for entries named in this document (tags omitted).
UniProt E1AZ71: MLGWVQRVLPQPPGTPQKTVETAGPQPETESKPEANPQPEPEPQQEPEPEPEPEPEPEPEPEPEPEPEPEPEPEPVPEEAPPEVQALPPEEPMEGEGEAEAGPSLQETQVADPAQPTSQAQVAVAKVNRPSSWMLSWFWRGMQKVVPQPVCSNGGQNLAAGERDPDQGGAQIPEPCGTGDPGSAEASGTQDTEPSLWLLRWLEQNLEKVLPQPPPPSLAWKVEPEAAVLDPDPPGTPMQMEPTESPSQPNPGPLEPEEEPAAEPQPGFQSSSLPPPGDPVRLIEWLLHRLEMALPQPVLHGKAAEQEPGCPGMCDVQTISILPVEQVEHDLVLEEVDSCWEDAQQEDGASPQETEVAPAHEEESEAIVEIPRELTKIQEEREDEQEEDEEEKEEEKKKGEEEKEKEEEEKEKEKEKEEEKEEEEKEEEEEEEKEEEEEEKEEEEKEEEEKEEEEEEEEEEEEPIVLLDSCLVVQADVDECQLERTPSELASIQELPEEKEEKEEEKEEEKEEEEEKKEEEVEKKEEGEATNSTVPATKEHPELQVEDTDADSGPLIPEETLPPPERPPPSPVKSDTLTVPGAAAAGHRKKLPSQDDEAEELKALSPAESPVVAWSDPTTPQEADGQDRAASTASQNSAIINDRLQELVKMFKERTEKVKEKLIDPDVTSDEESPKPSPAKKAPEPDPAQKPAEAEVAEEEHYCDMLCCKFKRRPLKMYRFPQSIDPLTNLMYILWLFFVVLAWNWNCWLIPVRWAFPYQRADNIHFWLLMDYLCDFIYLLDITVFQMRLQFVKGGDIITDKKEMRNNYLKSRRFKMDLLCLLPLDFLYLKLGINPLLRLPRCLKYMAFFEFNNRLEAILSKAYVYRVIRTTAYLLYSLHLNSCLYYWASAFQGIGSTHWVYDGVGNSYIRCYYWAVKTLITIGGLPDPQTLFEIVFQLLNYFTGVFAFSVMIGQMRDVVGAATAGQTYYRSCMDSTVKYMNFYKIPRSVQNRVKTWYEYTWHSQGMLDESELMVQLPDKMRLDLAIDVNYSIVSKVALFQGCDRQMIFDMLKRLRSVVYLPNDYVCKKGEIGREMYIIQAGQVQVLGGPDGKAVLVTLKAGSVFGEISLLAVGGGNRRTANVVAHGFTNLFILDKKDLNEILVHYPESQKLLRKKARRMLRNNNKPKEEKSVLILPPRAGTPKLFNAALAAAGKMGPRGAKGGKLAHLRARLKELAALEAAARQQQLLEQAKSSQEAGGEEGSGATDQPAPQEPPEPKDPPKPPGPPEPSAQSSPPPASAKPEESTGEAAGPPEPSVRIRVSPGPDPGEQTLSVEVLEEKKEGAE
UniProt P32958: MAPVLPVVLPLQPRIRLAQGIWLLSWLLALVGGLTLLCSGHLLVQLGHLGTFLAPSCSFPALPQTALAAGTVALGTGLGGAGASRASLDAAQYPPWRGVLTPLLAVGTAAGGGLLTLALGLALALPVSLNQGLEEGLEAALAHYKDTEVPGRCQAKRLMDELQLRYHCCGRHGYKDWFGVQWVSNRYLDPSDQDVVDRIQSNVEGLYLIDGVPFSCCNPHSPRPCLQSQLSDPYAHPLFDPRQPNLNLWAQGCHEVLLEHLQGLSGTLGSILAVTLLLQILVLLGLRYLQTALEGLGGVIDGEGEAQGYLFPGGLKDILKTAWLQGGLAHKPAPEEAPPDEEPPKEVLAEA

Key:
[1] = target: T1, Peripherin-2 also known as RDS (retinal degeneration slow) (mouse (endogenous in retina)) (UniProt P15499); test: affinity purification with mass spectrometry; CHAPS-solubilized membrane pellet of WT mouse retinas; RDS mAB 2E7 or ROM-1 mAB 2H5 chemically linked to sepharose 2B beads, 1 h at 4°C; elution with 1% SDS; LC-MS; rds-/- retinas as negative control
T1 sequence: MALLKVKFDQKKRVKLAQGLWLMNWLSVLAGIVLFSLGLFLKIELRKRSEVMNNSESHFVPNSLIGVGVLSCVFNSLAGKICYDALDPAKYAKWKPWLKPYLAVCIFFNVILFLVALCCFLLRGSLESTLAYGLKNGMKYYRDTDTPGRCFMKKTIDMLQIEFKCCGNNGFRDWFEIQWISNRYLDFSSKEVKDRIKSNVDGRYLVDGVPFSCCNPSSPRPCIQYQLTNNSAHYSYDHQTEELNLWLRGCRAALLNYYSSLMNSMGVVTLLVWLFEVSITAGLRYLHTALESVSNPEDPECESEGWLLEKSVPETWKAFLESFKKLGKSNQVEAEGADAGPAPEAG

[2] = target: T2, Syntaxin-3 isoform B (Stx3) (mouse (endogenous in retina)) (UniProt Q64704); test: affinity purification with mass spectrometry; CHAPS-solubilized membrane pellet of WT mouse retinas; anti-Syn3B (Synaptic Systems) and protein A beads overnight at 4°C; elution with 1% SDS; LC-MS; non-specific IgG as negative control
T2 sequence: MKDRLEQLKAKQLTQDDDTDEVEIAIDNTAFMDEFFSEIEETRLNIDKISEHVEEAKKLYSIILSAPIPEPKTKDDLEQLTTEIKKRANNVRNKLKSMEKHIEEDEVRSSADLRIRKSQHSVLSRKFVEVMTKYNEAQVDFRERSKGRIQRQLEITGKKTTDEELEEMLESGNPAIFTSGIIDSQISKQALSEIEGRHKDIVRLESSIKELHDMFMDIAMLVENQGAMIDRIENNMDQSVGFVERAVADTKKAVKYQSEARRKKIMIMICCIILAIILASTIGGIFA

| binding [1] | binding [2] | Substance |
| --- | --- | --- |
| binds | – | GARP/beta subunit of the rod cyclic nucleotide gated channel (CNGβ) (from UniProt E1AZ71 1-1325) |
| binds | binds | ROM-1 (rod outer segment protein 1) (from UniProt P32958 1-351) |

These are yes or no findings as the source states them, for the method shown. Binding seen in cells or lysates may run through a third protein. Here binding means that the protein was enriched with, or labelled near, the bait; the list need not be complete.
